Source: paper PMC6199744, “Development of Chemical Proteomics for the Folateome and Analysis of the Kinetoplastid Folateome” (ACS Infectious Diseases, 2018)
Where two headings read alike, the source gives them in different places. Further values from the same series stand in other lists.

Tested on: T. brucei lysate proteins
Format: binding, Trypanosoma brucei
Conditions: vehicle control = 1

Nc1nc2c(c(=O)[nH]1)N(C=O)C(CNc1ccc(C(=O)N[C@@H](CCC(=O)O)C(=O)O)cc1)CN2 (stereo partly drawn) [LEU, leucovorin]
fold change (protein TB09.211.2740 GIM5B PROTEIN): 0.98 | fold change (protein TB11.01.5320 SMALL GTPASE, PUTATIVE): 0.98 | fold change (protein TB11.46.0009 HY[…], CONSERVED): 0.97 | fold change (protein TB427TMP.01.2020 HY[…], CONSERVED): 0.67 | fold change (protein TB427TMP.01.2840 HY[…], CONSERVED): 0.87 | fold change (protein TB427TMP.01.3110 HEAT SHOCK PROTEIN 70): 1.39 | fold change (protein TB427TMP.01.4810 HY[…], CONSERVED): 0.89 | fold change (protein TB427TMP.01.6300 PHOSPHATIDYLINOSITOL 3-RELATED KINASE, PUTATIVE): 0.9 | fold change (protein TB427TMP.01.8510 T-COMPLEX PROTEIN 1, ALPHA SUBUNIT, PUTATIVE): 1.21 | fold change (protein TB427TMP.02.0230 HY[…], CONSERVED): 0.78 | fold change (protein TB427TMP.02.0350 HY[…], CONSERVED): 0.95 | fold change (protein TB427TMP.02.0980 HY[…], CONSERVED): 0.82 | fold change (protein TB427TMP.02.1120 ADENYL[…], PUTATIVE): 1.72 | fold change (protein TB427TMP.02.2410 CLATHRIN COAT ASSEMBLY PROTEIN, PUTATIVE): 0.79 | fold change (protein TB427TMP.02.5280 GLYCEROL-3-PHOSPHATE DEHYDROGENASE (FAD-DEPENDENT), MITOCHONDRIAL): 1.38 | fold change (protein TB427TMP.160.2220 HY[…], CONSERVED): 0.81 | fold change (protein TB427TMP.160.3590 CAMP-SPECIFIC PHOSPHODIESTERASE): 1.64 | fold change (protein TB427TMP.160.4240 […] PROTEIN-LIKE PROTEIN): 1.34 | fold change (protein TB427TMP.160.4760 HY[…]): 0.87 | fold change (protein TB427TMP.160.5200 HY[…], CONSERVED): 0.87 | fold change (protein TB427TMP.211.3310 R[…] C, SUBUNIT 3, PUTATIVE): 0.98 | fold change (protein TB427TMP.V1.0370 HY[…], CONSERVED): 0.91 | fold change (protein TB427.01.720 PHOSPH[…]): 1.44 | fold change (protein TB427.02.4130 ENOYL-COA HYDRATASE/ENOYL-COA ISOMERASE/3-HYDROXYACYL-COA DEHYDROGENASE, PUTATIVE): 0.85 | fold change (protein TB427.02.5820 HY[…], CONSERVED): 0.81 | fold change (protein TB427.02.5850 SMALL NUCLEAR RIBONUCLEOPROTEIN SMD2): 1.33 | fold change (protein TB427.03.4190 ENDOSOMAL INTEGRAL MEMBRANE PROTEIN, PUTATIVE): 0.9 | fold change (protein TB427.03.4600 HY[…], CONSERVED): 1.33 | fold change (protein TB427.04.1540 HY[…], CONSERVED): 1.26 | fold change (protein TB427.04.1970 HY[…], CONSERVED): 0.9 | fold change (protein TB427.04.3740 FLAGELLAR […] PROTEIN): 0.63 | fold change (protein TB427.04.4860 AMINO ACID TRANSPORTER 8, PUTATIVE): 0.86 | fold change (protein TB427.04.560 DYNEIN HEAVY CHAIN, PUTATIVE): 0.73 | fold change (protein TB427.04.960 HY[…], CONSERVED): 0.88 | fold change (protein TB427.05.1490 HY[…], CONSERVED): 0.73 | fold change (protein TB427.05.3800 GLUTAMINE HYDROLYSING (NOT AMMONIA-DEPENDENT) […] PHOSPHATE SYNTHASE, PUTATIVE): 0.81 | fold change (protein TB427.05.4460 MAJOR VAULT PROTEIN, PUTATIVE): 0.97 | fold change (protein TB427.05.520 STOMATIN-LIKE PROTEIN, PUTATIVE): 1 | fold change (protein TB427.05.550 VACUOLAR ATP SYNTHASE, PUTATIVE): 1.4 | fold change (protein TB427.06.1800 PROTEIN PHOSPHATASE 2C, PUTATIVE): 1.48 | fold change (protein TB427.06.2010 HY[…], CONSERVED): 1.4 | fold change (protein TB427.06.2250 RAC SERINE-THREONINE KINASE, PUTATIVE): 1.23 | fold change (protein TB427.06.3280 […] SUBUNIT 1, PUTATIVE): 0.74 | fold change (protein TB427.06.4890 S-ADENOSYL[…], PUTATIVE): 1.25 | fold change (protein TB427.07.3370 HY[…], CONSERVED): 1.18 | fold change (protein TB427.07.4570 INOSINE-GUANINE […]): 1.28 | fold change (protein TB427.07.5750 HY[…], CONSERVED): 1.6 | fold change (protein TB427.08.1840 HY[…], CONSERVED): 0.66 | fold change (protein TB427.08.1950 HY[…], CONSERVED): 1.2 | fold change (protein TB427.10.1170 INTR[…] PROTEIN IFT172, PUTATIVE): 0.8 | fold change (protein TB427.10.13280 HY[…], CONSERVED): 0.94 | fold change (protein TB427.10.1510 NOT1): 0.93 | fold change (protein TB427.10.15360 HY[…], CONSERVED): 0.86 | fold change (protein TB427.10.2900 IMPORTIN BETA-1 SUBUNIT, PUTATIVE): 0.91 | fold change (protein TB427.10.3260 LONG-CHAIN-FATTY-ACID--COA LIGASE 5, PUTATIVE): 1.18 | fold change (protein TB427.10.4110 60S RIBOSOMAL PROTEIN L30): 1.25 | fold change (protein TB427.10.4600 HY[…], CONSERVED): 1.2 | fold change (protein TB427.10.5250 HY[…], CONSERVED): 0.84 | fold change (protein TB427.10.6940 DIPEPTIDYL-PEPTIDASE 8-LIKE, PUTATIVE): 1.25 | fold change (protein TB427.10.7230 HY[…], CONSERVED): 0.76 | fold change (protein TB427.10.7550 HY[…], CONSERVED): 0.9 | fold change (protein TB427.10.8420 TARGET OF RAPAMYCIN (TOR) KINASE 1): 0.74 | fold change (protein TB427.10.9800 60S RIBOSOMAL PROTEIN L22): 0.91 | fold change (protein TB927.10.12330 HY[…], CONSERVED): 0.89 | fold change (protein TB927.10.12940 HY[…], CONSERVED): 0.96 | fold change (protein TB927.10.14170 AQUAPORIN 9, PUTATIVE): 0.99 | fold change (protein TB927.10.5330 40S RIBOSOMAL PROTEIN S18, PUTATIVE): 0.92 | fold change (protein TB927.10.6510 CHAPERONIN HSP60, MIT[…]): 1.57 | fold change (protein TB927.10.7090 A[…]): 1.36 | fold change (protein TB927.2.4930 ESTERASE, PUTATIVE): 0.94 | fold change (protein TB927.2.6320 ADENOSINE TRANSPORTER 2): 1.1 | fold change (protein TB927.3.1380 ATP SYNTHASE BETA CHAIN, MIT[…]): 0.81 | fold change (protein TB927.3.4360 40S RIBOSOMAL PROTEIN S15A, PUTATIVE): 0.9 | fold change (protein TB927.3.5490 FLAGELLAR TRANSPORT PROTEIN, PUTATIVE): 0.94 | fold change (protein TB927.3.910 GAMMA-TUBULIN): 1.26 | fold change (protein TB927.5.1930 HY[…], CONSERVED): 0.94 | fold change (protein TB927.6.2210 HY[…], CONSERVED): 0.75 | fold change (protein TB927.7.2140 HY[…]): 0.96 | fold change (protein TB927.7.2500 […] SUBUNIT 1): 1.1 | fold change (protein TB927.7.2700 NADH-CYTOCHROME B5 REDUCTASE, PUTATIVE): 1 | fold change (protein TB927.7.2980 HY[…], CONSERVED): 0.86 | fold change (protein TB927.7.5340 HY[…], CONSERVED): 0.67 | fold change (protein TB927.7.7040 METHYLTHIOADENOSINE PHOSPHORYLASE, PUTATIVE): 0.76 | fold change (protein TB927.7.710 HEAT SHOCK 70 KDA PROTEIN, PUTATIVE): 1.39
